No constants are given. Whether binding was seen depends on the method and setting. Binding seen in cells or lysates may run through a third protein.
Target: Serine incorporator 5 (SERINC5) with a FLAG-tag (human) (UniProt Q86VE9)
Test: co-IP; Ser5-FLAG expressed with Nef-HA or glycoMA-HA in HEK293T cells; cells separated into cytosolic and plasma membrane fractions; immunoprecipitated from both fractions by anti-FLAG, detected by WB

The chains behind the UniProt entries cited, without tags or fusion partners. Where a name states a change or a piece, a line headed by the entry shows the natural chain unless it says otherwise.
UniProt Q86VE9: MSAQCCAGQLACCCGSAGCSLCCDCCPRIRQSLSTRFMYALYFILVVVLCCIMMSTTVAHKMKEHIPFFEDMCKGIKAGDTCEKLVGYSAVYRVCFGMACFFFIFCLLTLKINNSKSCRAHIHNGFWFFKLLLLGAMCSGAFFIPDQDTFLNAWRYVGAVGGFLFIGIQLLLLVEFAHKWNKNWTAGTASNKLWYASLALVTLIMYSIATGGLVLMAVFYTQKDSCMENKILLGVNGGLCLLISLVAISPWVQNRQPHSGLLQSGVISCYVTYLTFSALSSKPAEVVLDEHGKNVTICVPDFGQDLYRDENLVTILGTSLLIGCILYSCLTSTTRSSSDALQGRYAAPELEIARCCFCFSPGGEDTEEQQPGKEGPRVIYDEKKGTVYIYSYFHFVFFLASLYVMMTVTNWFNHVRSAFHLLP
UniProt P03407: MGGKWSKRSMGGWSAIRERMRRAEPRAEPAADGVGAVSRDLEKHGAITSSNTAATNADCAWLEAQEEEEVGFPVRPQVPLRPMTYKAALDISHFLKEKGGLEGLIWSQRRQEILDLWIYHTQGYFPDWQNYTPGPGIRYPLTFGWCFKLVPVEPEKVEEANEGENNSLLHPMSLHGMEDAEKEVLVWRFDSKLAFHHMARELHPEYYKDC

Q: “HIV-1 Negative factor (Nef) of SF2 with an HA-tag (from UniProt P03407 1-210)” was tested. Which binding did it give?
A: Its binding is “no binding”.
